Measurements reported in paper PMC4275181.

Target: T1, CYT-18 CTD (Neurospora crassa) (UniProt P12063)
T1 sequence (looked up): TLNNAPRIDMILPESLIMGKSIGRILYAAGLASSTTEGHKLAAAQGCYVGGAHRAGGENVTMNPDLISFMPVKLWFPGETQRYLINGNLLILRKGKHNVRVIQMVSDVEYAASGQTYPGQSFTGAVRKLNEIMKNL
Assay: filter binding
Conditions: range over five RNAs, sigmoidal, 100 mM KCl, 5 mM MgCl2, 20 mM Tris-HCl pH 7.5, 5 mM DTT, 0.1 mg/ml BSA, 10% glycerol, 5 pM RNA, 30 min, 25C or 37C, nitrocellulose/nylon filter, recombinant protein, residues 448-583, label: 5'-32P

UUUUUUUUUUUUUUUUUUUUUUUUUUUUUU [poly(U)30]
binding result (25C): binds
binding result (37C): binds

For at least one entry, the source does not settle the construct or the ends of the probe. At least one verdict rests on a figure or table, not on a statement of the authors. Protein sequences can lack the tags named with them.
